The values below come from article PMC2613885.

These are yes or no findings as the source states them, for the method shown. In cells and extracts the contact can be indirect. Binding can be weak; no strength is given. Where a sequence is shown, tags or fusion partners need not be part of it.

In the assay the target is Myc-Vilse. Nature of the assay: co-IP; Myc-Vilse and V5-human Robo4 co-transfected in HEK293T for 36 h; RIPA lysates; IP with myc antibody, western with V5 antibody; 4°C; with or without AP-Slit2N (40 ng/ml, 1 h) on the cells.

B1: V5-tagged human Robo4 (receptor, UniProt Q8WZ75 28-1007)
chain: QDSPPQILVHPQDQLFQGPGPARMSCQASGQPPPTIRWLLNGQPLSMVPPDPHHLLPDGTLLLLQPPARGHAHDGQALSTDLGVYTCEASNRLGTAVSRGARLSVAVLREDFQIQPRDMVAVVGEQFTLECGPPWGHPEPTVSWWKDGKPLALQPGRHTVSGGSLLMARAEKSDEGTYMCVATNSAGHRESRAARVSIQEPQDYTEPVELLAVRIQLENVTLLNPDPAEGPKPRPAVWLSWKVSGPAAPAQSYTALFRTQTAPGGQGAPWAEELLAGWQSAELGGLHWGQDYEFKVRPSSGRARGPDSNVLLLRLPEKVPSAPPQEVTLKPGNGTVFVSWVPPPAENHNGIIRGYQVWSLGNTSLPPANWTVVGEQTQLEIATHMPGSYCVQVAAVTGAGAGEPSRPVCLLLEQAMERATQEPSEHGPWTLEQLRATLKRPEVIATCGVALWLLLLGTAVCIHRRRRARVHLGPGLYRYTSEDAILKHRMDHSDSQWLADTWRSTSGSRDLSSSSSLSSRLGADARDPLDCRRSLLSWDSRSPGVPLLPDTSTFYGSLIAELPSSTPARPSPQVPAVRRLPPQLAQLSSPCSSSDSLCSRRGLSSPRLSLAPAEAWKAKKKQELQHANSSPLLRGSHSLELRACELGNRGSKNLSQSPGAVPQALVAWRALGPKLLSSSNELVTRHLPPAPLFPHETPPTQSQQTQPPVAPQAPSSILLPAAPIPILSPCSPPSPQASSLSGPSPASSRLSSSSLSSLGEDQDSVLTPEEVALCLELSEGEETPRNSVSPMPRAPSPPTTYGYISVPTASEFTDMGRTGGGVGPKGGVLLCPPRPCLTPTPSEGSLANGWGSASEDNAASARASLVSSSDGSFLADAHFARALAVAVDSFGFGLEPREADCVFIDASSPPSPRDEIFLTPNLSLPLWEWRPDWLEDMEVSHTQRLGRGMPPWPPDSQISSQRSQLHCRMPKAGASPVDYS
B1: the binding entry is “binds”.
